Some results were stated once for a whole list of compounds, not compound by compound. At least one structure is not confirmed: it was looked up by name or label, or the drawing left a doubt.
What was measured:
[1] = tested on: cervical cancer cell line ME-180; experiment: Cytotoxicity assay (MTT, 72 h); format: cell-based, human; conditions: ME-180, MTT after 72 h, mean (SD)
Procedure: (§1) R-ME-180 and A2780cis cells were maintained in 1 μM cisplatin. Adipose-derived stromal cells were maintained in MSCGM BulletKit medium (Lonza). All cell lines were cultured at 37° C. in a 5% CO2, fully humidified atmosphere
(§2) Cell lines were seeded in 96-well flat-bottomed microplates in 100 μL culture medium at the following densities: DU145, PC3 and MCF-7 cells (2.5×10^3 cells/well); A2780, A2780cis, ME-180, R-ME-180 and A549 cells (4.0×10^3 cells/well); and MG-63 cells (2.0×10^3 cells/well). Cells were allowed to adhere for 24 h. Then the medium was replaced with fresh medium alone or with one of the gold(III) complexes at increasing concentrations from 0 to 100 μM. The reference drugs cisplatin (0-100 μM) and doxorubicin (0-1 μM) were included as positive controls for growth inhibition. After 72 h, cell viability was assayed using the MTT assay.
(§3) See Chou T. C.; Talalay P. Quantitative analysis of dose-effect relationships: the combined effects of multiple drugs or enzyme inhibitors. […] 22, 27-55, incorporated herein by reference in its entirety. IC50 values were reported as mean (SD). For drug-resistance cell lines, fold resistance (FR) was calculated as the ratio of the IC50 of the resistant cell line to the IC50 of the parental cell line.

[2] = tested on: ovarian cancer cell line A2780; experiment: Cytotoxicity assay (MTT, 72 h); format: cell-based, human; conditions: A2780, MTT after 72 h, mean (SD)
Procedure: as §1, §2, §3

## CN(C)C1=[S+][Au-]2([S]1)[n+]1cccc(O)c1-c1c(O)ccc[n+]12.[Cl-].[Cl-] [C2, [Au(BPYH)(DMDTC)]Cl2]
[1]
  IC50: < 15 µM
[2]
  IC50: < 1.5 µM

From patent publication US12103939B2, “Solid pharmaceutical gold-based composition” (KING FAHD UNIVERSITY OF PETROLEUM AND MINERALS, priority 2019, dated 2024)
